From patent US9856321B2, “Anti-DR5 antibodies, polynucleotides and methods” (Daiichi Sankyo Company, Limited, priority 2010, dated 2018)
Some of these results come from one statement about several compounds together.

Test system: human T-lymphoma cell line Jurkat
Assay: Screening of hybridoma culture supernatants in terms of cytocidal effect (ATP, CellTiter-Glo)
Format: cell-based
Conditions: hybridoma culture supernatant on plate-bound goat anti-mouse IgG Fc, 20 hours, compared with medium for culturing the hybridoma

B1: B273: mouse anti-human DR5 monoclonal antibody from hybridoma B273; heavy chain SEQ ID NO: 8, light chain SEQ ID NO: 10; IgG1, κ (antibody, listed as Mus musculus)
heavy: MGWSCIFLFLLSVTVGVFSEVQLQQSGPELVKPGASVKISCKASGYSFIGYFMNWMKQSHGKSLEWIGRFNPYNGDTFYNQKFKGKATLTVDKSSTTAHMELLSLTSEDSAVYFCGRSAYYFDSGGYFDYWGQGTTLTVSSAKTTPPSVYPLAPGSAAQTNSMVTLGCLVKGYFPEPVTVTWNSGSLSSGVHTFPAVLQSDLYTLSSSVTVPSSTWPSETVTCNVAHPASSTKVDKKIVPRDCGCKPCICTVPEVSSVFIFPPKPKDVLTITLTPKVTCVVVDISKDDPEVQFSWFVDDVEVHTAQTQPREEQFNSTFRSVSELPIMHQDWLNGKEFKCRVNSAAFPAPIEKTISKTKGRPKAPQVYTIPPPKEQMAKDKVSLTCMITDFFPEDITVEWQWNGQPAENYKNTQPIMDTDGSYFVYSKLNVQKSNWEAGNTFTCSVLHEGLHNHHTEKSLSHSPGK
light: MKLPVRLLVLMFWIPASSSDVVMTQTPLSLPVSLGDQASISCRSSQSLVHSNGNTYLHWYLQKPGQSPKLLIYKVSNRFSGVPDRFSGSGSGTDFTLKISRVEAEDLGIYFCSQSTHVPWTFGGGTKLEIKRADAAPTVSIFPPSSEQLTSGGASVVCFLNNFYPKDINVKWKIDGSERQNGVLNSWTDQDSKDSTYSMSSTLTLTKDEYERHNSYTCEATHKTSTSPIVKSFNRNEC
- decrease in the amount of ATP: ≥ 80%
